We go through 26 targets from the supplement of paper PMC12819154, “High-throughput peptide-centric local stability assay extends protein–ligand identification to membrane proteins, tissues and bacteria” (Nature Structural & Molecular Biology, 2025).

The chains behind the UniProt entries cited, without tags or fusion partners. Where a name states a change or a piece, a line headed by the entry shows the natural chain unless it says otherwise.
UniProt Q15654: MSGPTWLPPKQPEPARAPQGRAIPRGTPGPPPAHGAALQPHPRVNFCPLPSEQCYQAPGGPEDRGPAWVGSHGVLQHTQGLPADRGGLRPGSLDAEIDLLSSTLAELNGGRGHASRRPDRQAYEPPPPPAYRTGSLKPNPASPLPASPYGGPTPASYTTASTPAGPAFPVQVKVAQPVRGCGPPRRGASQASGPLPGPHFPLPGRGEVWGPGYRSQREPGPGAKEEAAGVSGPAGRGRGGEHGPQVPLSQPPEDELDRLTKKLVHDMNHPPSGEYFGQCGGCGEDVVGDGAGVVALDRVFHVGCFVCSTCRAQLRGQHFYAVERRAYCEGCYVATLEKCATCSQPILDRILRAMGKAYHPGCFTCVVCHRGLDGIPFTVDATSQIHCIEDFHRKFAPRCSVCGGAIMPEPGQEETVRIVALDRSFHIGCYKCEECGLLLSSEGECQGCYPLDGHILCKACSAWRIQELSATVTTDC
UniProt Q29980: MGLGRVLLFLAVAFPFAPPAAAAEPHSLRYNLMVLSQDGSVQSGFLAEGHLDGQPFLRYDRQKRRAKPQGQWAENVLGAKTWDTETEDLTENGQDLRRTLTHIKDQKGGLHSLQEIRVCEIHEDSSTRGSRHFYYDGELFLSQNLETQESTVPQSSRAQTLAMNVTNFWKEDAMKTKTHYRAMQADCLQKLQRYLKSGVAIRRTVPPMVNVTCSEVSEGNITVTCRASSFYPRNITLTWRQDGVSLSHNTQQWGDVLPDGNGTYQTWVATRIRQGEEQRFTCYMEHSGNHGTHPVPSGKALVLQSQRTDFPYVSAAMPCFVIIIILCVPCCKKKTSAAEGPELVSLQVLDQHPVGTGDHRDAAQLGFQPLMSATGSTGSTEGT
UniProt Q1RMZ1: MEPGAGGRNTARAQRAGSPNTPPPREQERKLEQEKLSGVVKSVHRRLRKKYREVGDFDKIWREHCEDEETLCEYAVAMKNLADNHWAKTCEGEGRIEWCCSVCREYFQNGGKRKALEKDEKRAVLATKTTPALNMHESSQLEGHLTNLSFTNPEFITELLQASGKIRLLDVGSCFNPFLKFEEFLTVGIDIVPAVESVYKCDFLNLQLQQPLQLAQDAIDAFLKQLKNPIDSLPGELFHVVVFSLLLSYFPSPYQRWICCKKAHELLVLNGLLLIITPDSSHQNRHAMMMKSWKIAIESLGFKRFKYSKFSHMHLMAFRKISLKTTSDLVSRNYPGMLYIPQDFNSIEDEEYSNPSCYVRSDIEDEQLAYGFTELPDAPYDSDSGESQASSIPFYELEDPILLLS
UniProt Q15696: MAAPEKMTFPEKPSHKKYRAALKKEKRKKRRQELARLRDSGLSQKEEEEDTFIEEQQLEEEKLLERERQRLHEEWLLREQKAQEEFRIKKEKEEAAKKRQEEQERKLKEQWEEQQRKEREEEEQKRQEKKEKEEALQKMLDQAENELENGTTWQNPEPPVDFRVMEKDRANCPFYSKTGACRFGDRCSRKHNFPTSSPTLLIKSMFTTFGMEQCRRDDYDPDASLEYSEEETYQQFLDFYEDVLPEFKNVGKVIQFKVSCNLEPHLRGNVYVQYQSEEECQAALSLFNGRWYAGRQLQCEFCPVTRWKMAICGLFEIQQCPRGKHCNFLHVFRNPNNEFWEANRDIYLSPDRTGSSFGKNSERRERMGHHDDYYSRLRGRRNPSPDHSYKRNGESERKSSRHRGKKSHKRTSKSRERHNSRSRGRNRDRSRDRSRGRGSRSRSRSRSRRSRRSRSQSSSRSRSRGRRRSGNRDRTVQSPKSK
UniProt Q15287: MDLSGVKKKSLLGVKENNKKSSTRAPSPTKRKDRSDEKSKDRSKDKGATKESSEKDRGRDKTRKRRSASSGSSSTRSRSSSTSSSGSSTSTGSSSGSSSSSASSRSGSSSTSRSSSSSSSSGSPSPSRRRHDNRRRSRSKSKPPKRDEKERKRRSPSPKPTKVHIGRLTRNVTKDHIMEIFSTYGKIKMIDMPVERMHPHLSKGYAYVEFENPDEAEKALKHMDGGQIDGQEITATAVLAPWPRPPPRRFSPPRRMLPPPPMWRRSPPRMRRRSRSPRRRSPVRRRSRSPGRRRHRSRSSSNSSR
UniProt Q15906, whole entry: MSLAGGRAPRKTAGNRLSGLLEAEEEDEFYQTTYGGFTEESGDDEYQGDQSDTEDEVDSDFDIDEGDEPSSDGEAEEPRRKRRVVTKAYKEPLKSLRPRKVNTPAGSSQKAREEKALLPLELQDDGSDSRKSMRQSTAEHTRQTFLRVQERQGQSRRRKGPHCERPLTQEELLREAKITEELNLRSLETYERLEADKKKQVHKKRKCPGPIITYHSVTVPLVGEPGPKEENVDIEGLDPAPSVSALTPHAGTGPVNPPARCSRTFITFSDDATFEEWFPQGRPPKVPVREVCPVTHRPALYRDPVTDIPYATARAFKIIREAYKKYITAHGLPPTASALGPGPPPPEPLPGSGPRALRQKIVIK
UniProt Q1ZZU3: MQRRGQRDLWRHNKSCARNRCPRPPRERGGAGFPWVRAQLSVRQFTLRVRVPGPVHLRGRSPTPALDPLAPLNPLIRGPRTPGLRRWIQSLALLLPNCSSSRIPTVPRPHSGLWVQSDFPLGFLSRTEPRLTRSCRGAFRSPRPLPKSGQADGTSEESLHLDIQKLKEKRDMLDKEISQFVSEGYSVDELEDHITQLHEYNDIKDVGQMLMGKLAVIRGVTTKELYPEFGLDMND
UniProt Q16670: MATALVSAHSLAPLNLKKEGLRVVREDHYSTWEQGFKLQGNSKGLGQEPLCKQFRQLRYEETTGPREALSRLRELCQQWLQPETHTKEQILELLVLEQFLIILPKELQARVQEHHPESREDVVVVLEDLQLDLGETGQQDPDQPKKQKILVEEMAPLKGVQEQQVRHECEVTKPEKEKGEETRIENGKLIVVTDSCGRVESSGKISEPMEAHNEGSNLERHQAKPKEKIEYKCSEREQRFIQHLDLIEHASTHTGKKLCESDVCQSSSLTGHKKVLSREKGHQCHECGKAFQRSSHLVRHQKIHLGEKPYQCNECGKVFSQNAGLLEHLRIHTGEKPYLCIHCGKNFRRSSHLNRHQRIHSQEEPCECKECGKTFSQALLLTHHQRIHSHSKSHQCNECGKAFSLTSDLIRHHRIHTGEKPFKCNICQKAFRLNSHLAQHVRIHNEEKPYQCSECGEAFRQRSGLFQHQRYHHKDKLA
UniProt Q15758: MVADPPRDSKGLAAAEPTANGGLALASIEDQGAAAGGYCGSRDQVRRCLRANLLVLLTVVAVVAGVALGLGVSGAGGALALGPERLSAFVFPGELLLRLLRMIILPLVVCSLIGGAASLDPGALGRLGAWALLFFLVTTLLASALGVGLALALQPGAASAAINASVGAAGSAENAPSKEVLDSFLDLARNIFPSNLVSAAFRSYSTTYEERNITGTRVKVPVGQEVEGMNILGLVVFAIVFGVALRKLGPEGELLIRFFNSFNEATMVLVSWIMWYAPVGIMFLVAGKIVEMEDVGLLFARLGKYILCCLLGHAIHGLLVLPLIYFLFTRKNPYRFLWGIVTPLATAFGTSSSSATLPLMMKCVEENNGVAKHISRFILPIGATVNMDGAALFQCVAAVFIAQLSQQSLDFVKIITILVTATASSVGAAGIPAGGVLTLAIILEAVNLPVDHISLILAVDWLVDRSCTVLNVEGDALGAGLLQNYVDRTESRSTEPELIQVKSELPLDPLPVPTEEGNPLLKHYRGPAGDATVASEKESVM
UniProt Q3KQV9: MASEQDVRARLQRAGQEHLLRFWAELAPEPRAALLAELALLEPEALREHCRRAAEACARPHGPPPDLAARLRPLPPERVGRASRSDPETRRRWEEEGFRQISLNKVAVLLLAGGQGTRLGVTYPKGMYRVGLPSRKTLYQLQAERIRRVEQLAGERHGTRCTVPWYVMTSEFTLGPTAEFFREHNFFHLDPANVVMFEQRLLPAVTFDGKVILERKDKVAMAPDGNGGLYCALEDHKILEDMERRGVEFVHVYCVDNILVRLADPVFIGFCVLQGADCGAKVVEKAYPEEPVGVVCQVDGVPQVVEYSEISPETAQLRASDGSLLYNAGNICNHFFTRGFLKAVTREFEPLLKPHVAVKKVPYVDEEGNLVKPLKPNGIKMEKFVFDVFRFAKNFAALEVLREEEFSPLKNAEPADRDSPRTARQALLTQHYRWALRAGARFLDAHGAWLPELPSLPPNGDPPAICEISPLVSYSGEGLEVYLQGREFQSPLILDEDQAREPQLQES
UniProt Q16254: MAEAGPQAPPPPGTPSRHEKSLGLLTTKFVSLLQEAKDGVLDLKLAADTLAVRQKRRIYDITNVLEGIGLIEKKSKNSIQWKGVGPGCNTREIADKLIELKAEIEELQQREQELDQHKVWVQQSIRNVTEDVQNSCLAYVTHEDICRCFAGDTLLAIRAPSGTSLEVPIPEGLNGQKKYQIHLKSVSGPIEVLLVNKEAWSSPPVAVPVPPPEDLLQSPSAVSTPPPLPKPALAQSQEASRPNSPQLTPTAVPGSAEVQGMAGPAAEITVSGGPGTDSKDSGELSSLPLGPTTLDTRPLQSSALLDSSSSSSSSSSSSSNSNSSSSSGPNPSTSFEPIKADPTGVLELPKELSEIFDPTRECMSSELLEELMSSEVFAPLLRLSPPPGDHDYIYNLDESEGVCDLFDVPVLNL
UniProt Q15036: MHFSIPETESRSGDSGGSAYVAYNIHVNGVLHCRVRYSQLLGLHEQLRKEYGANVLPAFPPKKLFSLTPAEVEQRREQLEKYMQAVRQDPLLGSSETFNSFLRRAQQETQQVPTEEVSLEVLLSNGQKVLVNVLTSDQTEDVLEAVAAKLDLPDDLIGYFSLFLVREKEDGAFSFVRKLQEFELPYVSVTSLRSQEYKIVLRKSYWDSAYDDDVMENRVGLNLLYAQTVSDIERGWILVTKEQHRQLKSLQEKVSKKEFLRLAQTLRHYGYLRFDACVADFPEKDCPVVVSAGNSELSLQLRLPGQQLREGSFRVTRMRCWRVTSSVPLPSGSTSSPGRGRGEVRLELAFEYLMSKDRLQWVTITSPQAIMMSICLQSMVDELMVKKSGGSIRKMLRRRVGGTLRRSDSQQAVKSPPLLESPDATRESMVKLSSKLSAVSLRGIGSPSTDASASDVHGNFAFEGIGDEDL
UniProt Q16222: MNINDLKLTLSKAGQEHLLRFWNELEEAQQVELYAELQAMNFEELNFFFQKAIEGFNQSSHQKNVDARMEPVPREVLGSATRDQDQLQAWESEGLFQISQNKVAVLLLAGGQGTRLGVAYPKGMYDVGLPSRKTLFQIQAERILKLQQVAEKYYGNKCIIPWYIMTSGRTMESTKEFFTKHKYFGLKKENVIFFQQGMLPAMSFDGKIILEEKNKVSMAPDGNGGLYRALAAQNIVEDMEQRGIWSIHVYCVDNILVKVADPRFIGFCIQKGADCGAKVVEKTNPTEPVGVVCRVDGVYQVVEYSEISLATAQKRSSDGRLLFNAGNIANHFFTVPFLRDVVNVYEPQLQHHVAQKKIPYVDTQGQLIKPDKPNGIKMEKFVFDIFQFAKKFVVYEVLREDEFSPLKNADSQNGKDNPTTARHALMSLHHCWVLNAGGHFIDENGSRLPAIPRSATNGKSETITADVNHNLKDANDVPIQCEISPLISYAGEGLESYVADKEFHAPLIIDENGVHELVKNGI
UniProt Q15118, whole entry, looked up: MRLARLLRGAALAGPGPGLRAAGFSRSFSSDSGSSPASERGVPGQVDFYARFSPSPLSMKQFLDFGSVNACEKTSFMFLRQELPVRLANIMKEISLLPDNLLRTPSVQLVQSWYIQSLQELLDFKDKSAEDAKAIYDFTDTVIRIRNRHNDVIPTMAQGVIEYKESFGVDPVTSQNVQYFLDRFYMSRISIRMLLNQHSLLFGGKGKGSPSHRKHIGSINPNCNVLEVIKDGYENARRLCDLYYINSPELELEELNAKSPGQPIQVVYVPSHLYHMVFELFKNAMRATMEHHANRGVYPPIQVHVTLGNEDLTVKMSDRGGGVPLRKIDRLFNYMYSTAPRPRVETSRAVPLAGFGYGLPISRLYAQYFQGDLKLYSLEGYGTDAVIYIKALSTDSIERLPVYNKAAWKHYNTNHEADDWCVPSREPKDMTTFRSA
UniProt Q15717, whole entry: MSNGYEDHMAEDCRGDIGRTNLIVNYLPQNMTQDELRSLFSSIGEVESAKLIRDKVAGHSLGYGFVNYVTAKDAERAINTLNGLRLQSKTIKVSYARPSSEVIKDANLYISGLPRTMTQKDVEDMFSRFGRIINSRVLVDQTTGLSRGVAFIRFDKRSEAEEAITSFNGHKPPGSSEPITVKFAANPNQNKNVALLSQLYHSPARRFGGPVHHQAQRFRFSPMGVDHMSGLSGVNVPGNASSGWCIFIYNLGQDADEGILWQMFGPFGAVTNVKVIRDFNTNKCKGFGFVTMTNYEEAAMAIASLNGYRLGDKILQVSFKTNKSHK
UniProt Q15819: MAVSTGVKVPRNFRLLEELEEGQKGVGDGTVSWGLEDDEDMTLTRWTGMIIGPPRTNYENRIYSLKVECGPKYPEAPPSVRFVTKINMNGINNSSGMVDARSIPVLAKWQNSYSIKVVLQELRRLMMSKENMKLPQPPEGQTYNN

The list shows a part of the results. Most values lie at the level of the controls, where differences are scatter.

Compound in the assay: Cc1nc(Nc2ncc(C(=O)Nc3c(C)cccc3Cl)s2)cc(N2CCN(CCO)CC2)n1 [dasatinib]
Description: log2 fold change of tryptic peptide abundance, ligand vs vehicle (limited proteolysis) (log2 ratio); higher = more trypsin-susceptible (destabilized). The settings on record: ligand concentration: 5 uM; sample: K562 cleared lysate.
Consider “TRIP6 (peptide sequence: VFHVGCFVCSTCRAQLR, peptide start residue: 299) (UniProt Q15654)”, for which the log2 fold change turned out to be 0.288.

With “MRPL23 (peptide sequence: RGGVPSWFGL, peptide start residue: 144) (UniProt Q16540)”, the log2 fold change is -0.586. As for “UniProt Q29980 (peptide sequence: VCEIHEDSSTR, peptide start residue: 118)”, the figure is 0.03. In the case of “BMT2 (peptide sequence: NLADNHWAK, peptide start residue: 80) (UniProt Q1RMZ1)”, the log2 fold change worked out at 0.414. Under “ZRSR2 (peptide sequence: LKEQWEEQQR, peptide start residue: 107) (UniProt Q15696)” stands 0.434. Regarding “UniProt Q15287 (peptide sequence: MLPPPPMWR, peptide start residue: 256)”, the log2 fold change is -0.0556. For “VPS72 (peptide sequence: SLETYER, peptide start residue: 186) (UniProt Q15906)”, the log2 fold change is 0.0905. Under “UniProt Q16584 (peptide sequence: ITVQASPGLDR, peptide start residue: 502)” stands -0.521; under “EEA1 (peptide sequence: LREAQNDLEQVLR, peptide start residue: 504) (UniProt Q15075)”, 0.485; under “SWI5 (peptide sequence: DVGQMLMGK, peptide start residue: 205) (UniProt Q1ZZU3)”, -0.0701. Under “EML3 (peptide sequence: RNSSSSSSPSERPR, peptide start residue: 154) (UniProt Q32P44)” stands 1.89.

Take “UniProt Q3KQV3 (peptide sequence: SAHECSECGKSFNCNSSLIK, peptide start residue: 392)”: the log2 fold change is -0.614. As for “HAGH (peptide sequence: HVEPGNAAIR, peptide start residue: 233) (UniProt Q16775)”, the figure is 0.0113; as for “RABEP1 (peptide sequence: SVLQEDAEKLRK, peptide start residue: 246) (UniProt Q15276)”, -0.27.

Consider “MAPRE1 (peptide sequence: IIPVDKLVK, peptide start residue: 90) (UniProt Q15691)”, for which the log2 fold change was -0.168. Under “UniProt Q16670 (peptide sequence: FIQHLDLIEHASTHTGK, peptide start residue: 240)” stands -0.621; under “CSPP1 (peptide sequence: ANEEVGISNLK, peptide start residue: 279) (UniProt Q1MSJ5)”, -0.306; under “SLC1A5 (peptide sequence: HYRGPAGDATVASEKESVM, peptide start residue: 523) (UniProt Q15758)”, 0.244.

On to “UAP1L1 (peptide sequence: QALLTQHYR, peptide start residue: 425) (UniProt Q3KQV9)”, for which the log2 fold change was determined as 0.494. As for “E2F4 (peptide sequence: AEIEELQQR, peptide start residue: 102) (UniProt Q16254)”, the figure is -0.142. As for “SNX17 (peptide sequence: SPPLLESPDATR, peptide start residue: 415) (UniProt Q15036)”, the figure is -0.141. Regarding “UAP1 (peptide sequence: DVVNVYEPQLQHHVAQKK, peptide start residue: 340) (UniProt Q16222)”, the log2 fold change is 0.835.

As to “PDK1 (peptide sequence: ALSTDSIERLPVYNK, peptide start residue: 391) (UniProt Q15118)”, the log2 fold change is -0.406.

For the target “ELAVL1 (peptide sequence: FAANPNQNK, peptide start residue: 183) (UniProt Q15717)”, the log2 fold change came to 0.0828. Under “UGP2 (peptide sequence: FLQEKGPSVDWGK, peptide start residue: 65) (UniProt Q16851)” stands 0.333; under “UBE2V2 (peptide sequence: AVSTGVKVPR, peptide start residue: 2) (UniProt Q15819)”, 0.0802.
